The source of these data is US6642353B1, “Peptide ligands for the erythropoietin receptor” (Chugai Seiyaku Kabushiki Kaisha, priority 2000, dated 2003).

The target of experiment [1] is extracellular domain of the receptor for tumor necrosis factor (TNFR). The experiment is described as follows: magnetic bead phage ELISA, control. Background: In an ELISA, binding on a coated surface is turned into a signal by an enzyme label.
In experiment [2] the target is extracellular domain of the receptor for interleukin-6 (IL-6R). Kind of experiment: magnetic bead phage ELISA, control.

No constants are given. Whether binding was seen depends on the method and setting.

For DFDVCRRGWVGHCKDWLSDEYASNPSYPVPHSYYLNPP (peptide, not shown: large carriers) [ERB1 phage clone], the binding result in experiment [1] and in experiment [2] was “no binding” throughout.
